PubChem BioAssay AID1159584, Peter MacCallum Cancer Centre – 2016
This is a random part of about 18,000 reagents tested. The record does not give: the amount of reagent, the time to read-out.

Purpose: 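Genes that CDH1-null MCF10A cells selectively depend on to survive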 (primary screen)
Cell system: human MCF10A breast epithelial cells, parental and CDH1-null
Reagent: siRNA against human genes
Read-out: 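Cell viability by CellTiter-Glo ATP luminescence, each line scaled to the mean of mock wells across plates, then CDH1-null over parental ratio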
Scale: CDH1-null / parental viability ratio: higher = CDH1-null cells survive relatively better than parental; CDH1-null viability vs mock: higher = more viable CDH1-null cells; parental viability vs mock: higher = more viable parental cells

gene knocked down	CDH1-null / parental viability ratio	CDH1-null viability vs mock (fraction of mock)	parental viability vs mock (fraction of mock)
CDHR4 (GeneID 389118)	1.33	0.69	0.52
MS4A3 (GeneID 932)	1.13	0.98	0.87
KIAA0232 (GeneID 9778)	1.37	0.52	0.38
LY6K (GeneID 54742)	0.89	0.9	1.01
GGTLC2 (GeneID 91227)	1	0.4	0.4
RAB5B (GeneID 5869)	1.11	1.15	1.04
SENP5 (GeneID 205564)	1.12	0.94	0.84
MRPL50 (GeneID 54534)	0.85	0.47	0.55
PPP2R3A (GeneID 5523)	1.43	0.8	0.56
ZNF517 (GeneID 340385)	0.99	0.94	0.95
KRT12 (GeneID 3859)	1.17	1.12	0.96
ZNF557 (GeneID 79230)	1.11	1.02	0.92
RRP36 (GeneID 88745)	1.03	0.62	0.6
OR10G8 (GeneID 219869)	1.13	1.04	0.92
TMOD2 (GeneID 29767)	1.46	0.67	0.46
MSI1 (GeneID 4440)	0.73	0.44	0.6
VAV3 (GeneID 10451)	0.94	0.98	1.04
CDX1 (GeneID 1044)	1.03	1.01	0.98
ADAMTS10 (GeneID 81794)	1.03	0.66	0.64
GPR20 (GeneID 2843)	1.37	0.85	0.62
MMP16 (GeneID 4325)	1.09	0.85	0.78
SLC25A45 (GeneID 283130)	0.81	0.6	0.74
RHEBL1 (GeneID 121268)	0.93	0.67	0.72
PSMB1 (GeneID 5689)	1.37	0.52	0.38
RAP2A (GeneID 5911)	0.99	1.04	1.05
ZNF420 (GeneID 147923)	0.89	0.64	0.72
CEMP1 (GeneID 752014)	1.07	0.81	0.76
DCUN1D1 (GeneID 54165)	1.19	0.95	0.8
TEFM (GeneID 79736)	1.21	1.04	0.86
PRAMEF7 (GeneID 441871)	0.72	0.62	0.86
EIF2S3 (GeneID 1968)	0.8	0.48	0.6
ZNF200 (GeneID 7752)	1.02	1.01	0.99
CDHR1 (GeneID 92211)	1	0.82	0.82
CHRAC1 (GeneID 54108)	1.09	0.74	0.68
TAS2R50 (GeneID 259296)	0.94	0.76	0.81
SLC7A10 (GeneID 56301)	0.95	0.78	0.82
STYK1 (GeneID 55359)	1.27	0.66	0.52
IMMT (GeneID 10989)	0.93	0.86	0.92
WBP11 (GeneID 51729)	2.06	0.66	0.32
TLR6 (GeneID 10333)	0.87	0.71	0.82
MSANTD1 (GeneID 345222)	1.11	1.14	1.03
NELL2 (GeneID 4753)	1.15	0.97	0.84
SH3GLB1 (GeneID 51100)	1.18	0.52	0.44
HNRNPCL1 (GeneID 343069)	0.8	0.82	1.02
DCUN1D3 (GeneID 123879)	1.1	0.86	0.78
CP (GeneID 1356)	0.99	1.14	1.15
CD80 (GeneID 941)	0.92	0.7	0.76
CCDC97 (GeneID 90324)	1.04	0.79	0.76
CCKBR (GeneID 887)	1.36	0.9	0.66
EPCIP (GeneID 56245)	1.19	0.81	0.68
FBLIM1 (GeneID 54751)	1.17	0.84	0.72
FAM133B (GeneID 257415)	0.98	0.9	0.92
TCP10L3 (GeneID 6953)	0.88	0.5	0.57
TBC1D15 (GeneID 64786)	0.92	0.73	0.79
CNGA1 (GeneID 1259)	1.42	0.88	0.62
HMGXB4 (GeneID 10042)	1.23	1.18	0.96
PAAF1 (GeneID 80227)	1.2	0.36	0.3
CAPRIN1 (GeneID 4076)	0.77	0.48	0.62
GUCA2A (GeneID 2980)	1.22	1.05	0.86
RPL11 (GeneID 6135)	1.44	0.46	0.32
MMS22L (GeneID 253714)	1.08	0.71	0.66
VCY (GeneID 9084)	1.19	1.02	0.86
LATS2 (GeneID 26524)	0.91	0.78	0.86
PLAC9 (GeneID 219348)	0.82	0.5	0.61
QSER1 (GeneID 79832)	1.02	0.95	0.93
ALYREF (GeneID 10189)	0.71	0.44	0.62
MAP9 (GeneID 79884)	1.02	1.1	1.08
SLC12A9 (GeneID 56996)	1.28	1.06	0.83
SPIN1 (GeneID 10927)	1.29	0.94	0.73
KLRD1 (GeneID 3824)	0.98	0.55	0.56
KRT35 (GeneID 3886)	0.89	0.73	0.82
NDST4 (GeneID 64579)	1.03	1.02	0.99
ZNF454 (GeneID 285676)	1.25	0.55	0.44
TAF1C (GeneID 9013)	1.26	1.23	0.98
DYNC1LI1 (GeneID 51143)	0.89	0.78	0.88
PRICKLE2 (GeneID 166336)	0.79	0.6	0.76
TEX11 (GeneID 56159)	0.85	0.7	0.82
PCNP (GeneID 57092)	1	0.86	0.86
TULP4 (GeneID 56995)	1	0.9	0.9
BPIFB6 (GeneID 128859)	1.13	0.68	0.6
FTHL17 (GeneID 53940)	1.42	0.68	0.48
FLT4 (GeneID 2324)	0.82	0.46	0.56
PRSS1 (GeneID 5644)	1.1	0.91	0.83
ARRB2 (GeneID 409)	1.04	1.28	1.23
C4BPB (GeneID 725)	1.19	0.86	0.72
CPN2 (GeneID 1370)	1.07	0.98	0.92
STK17B (GeneID 9262)	1.12	0.99	0.88

Ordered by “parental viability vs mock (fraction of mock)” (low to high): some entries from above.
gene knocked down	CDH1-null / parental viability ratio	CDH1-null viability vs mock (fraction of mock)	parental viability vs mock (fraction of mock)
CCKBR (GeneID 887)	1.36	0.9	0.66
EPCIP (GeneID 56245)	1.19	0.81	0.68
CD80 (GeneID 941)	0.92	0.7	0.76
CCDC97 (GeneID 90324)	1.04	0.79	0.76
DCUN1D3 (GeneID 123879)	1.1	0.86	0.78
CP (GeneID 1356)	0.99	1.14	1.15
